Measured values: PubChem BioAssay AID2685 (National Center for Advancing Translational Sciences (NCATS), 2010)
Some of the results follow. Shown are side measurements of this screen, not its main read-out; they come without a call. Compounds called inactive in the main read-out are mostly missing here. The note in brackets gives the kind of curve behind each potency; many fits are weak.

Assay: qHTS Assay for Lipid Storage Modulators in Drosophila S3 Cells;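 for cell number change: cells counted by Cell Tracker Red CMTPX staining in the red channel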
Details: BODIPY lipid droplet fluorescence, 18-24 h; for cell number change: measured here: cell count max response, cells fed with added oleic acid
How it was run: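 Drosophila S3 cells loaded with oleic acid (400 uM, as added) and compounds at several concentrations; lipid droplets imaged by 488-nm laser-scanning cytometry, 500–530 nm intensity and object ratio to cell channel. Percent activity normalized to 20 uM Triacsin C.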

[1] = measured here: lipid fluorescence (Fed channel) AC50, cells fed with added oleic acid
[2] = measured here: cell number channel AC50, cells fed with added oleic acid

Row | Compound | cell number change | AC50 [1] | AC50 [2]
1 | CSCC[C@H](NC(=O)[C@H](Cc1ccccc1)n1c(=O)[nH]c2ccccc2c1=O)C(=O)N1CCC(C(=O)O)CC1 | 5.5% | 0.13 µM [rising, full curve, poor fit] | –
2 | CCCCn1c(NCc2ccncc2)nc2ccccc21 | 38.8% | – | –
3 | CCc1ccccc1Nc1nn2c(=O)c3ccc(C(=O)NCc4ccccn4)cc3nc2s1 | -36.1% | 6.51 µM [falling, single point] | 2.31 µM [falling, full curve]
4 | CSc1cccc(NC(=S)NC(=O)CCc2ccccc2)c1 | 45.7% | 2.91 µM [rising, full curve] | 2.31 µM [rising, full curve]
5 | CCN(CC(=O)Nc1ccc2c(c1)OCCO2)C(=O)c1cccc(S(=O)(=O)N2CCOCC2)c1 | 8.28% | – | –
6 | CNC(=O)CN1C(=O)COc2ccc(S(=O)(=O)N3CCCCCC3)cc21 | -2.28% | 6.51 µM [falling, single point] | –
7 | O=C(CCn1c(=S)[nH]c2ccccc2c1=O)NCC1CCCO1 (centres undefined) | – | 6.51 µM [falling, single point] | 0.731 µM [falling, full curve, poor fit]
8 | CCOC(=O)N1CCN(Cc2nc3c(c(=O)[nH]c(=O)n3C)n2Cc2ccccc2C)CC1 | -5.4% | – | –
9 | Clc1cccc(CNc2nc(-c3cccnc3)nc3ccccc23)c1 | 6.05% | 3.26 µM [rising, single point] | –
10 | COc1ccc(NC(=O)CSc2nnc(Cc3ccccc3)c(=O)n2N)cc1OC | 19.7% | 1.46 µM [rising, full curve, poor fit] | –
11 | N#Cc1nc(-c2cccc(Cl)c2)oc1NCc1cccnc1 | 33.6% | – | 13 µM [rising, single point]
12 | O=C(NNC(=O)C1CC=CCC1C(=O)O)c1ccc(Cl)cc1 (centres undefined) | 4.19% | 2.31 µM [falling, partial curve] | 3.66 µM [falling, single point]
13 | COc1ccc(C(=O)N2CCCC(CNC(=O)c3ccc(F)cc3)C2)cc1OC (centres undefined) | 6.08% | 29.1 µM [rising, single point] | –
14 | O=C1c2ccccc2C(Nc2ccc3nc(-c4cccnc4)[nH]c3c2)N1Cc1ccco1 (centres undefined) | 2.72% | 0.731 µM [rising, full curve, poor fit] | –
15 | COc1cc(NC(=O)C2CCN(S(=O)(=O)c3ccc4[nH]c(=O)oc4c3)CC2)cc(OC)c1 | – | 0.259 µM [rising, partial curve, poor fit] | –
16 | CCOC(=O)N1CCN(C(=O)COCc2cc(-c3ccc4c(c3)OCO4)on2)CC1 | 21.8% | 23.1 µM [rising, single point] | –
17 | CCCC(NS(=O)(=O)c1ccc(OC)cc1)C(=O)O (centres undefined) | -2.5% | 6.51 µM [falling, single point] | –
18 | COc1cc(SC#N)ccc1N=Cc1c(C)[nH]n(-c2ccc(C)c(C)c2)c1=O | -88.2% | 23.1 µM [falling, single point] | 18.4 µM [falling, partial curve]
19 | CN(Cc1ccon1)C(=O)C1CCC(=O)N(CCc2ccc(Cl)cc2)C1 (centres undefined) | 16.5% | – | –
20 | Cc1onc(-c2ccccc2)c1-c1n[nH]c(=S)n1-c1ccc(C(=O)O)cc1 | 4.2% | 23.1 µM [falling, partial curve] | –

Row | Compound | cell number change | AC50 [1] | AC50 [2]
21 | CC(C)Oc1ccc(CN2CCCC(CO)(Cc3ccccc3)C2)cc1CO (centres undefined) | 6.2% | – | 4.61 µM [rising, partial curve, poor fit]
22 | Cc1ccc(C2=NN(C(=O)CSc3nc4ncc(Cl)cc4[nH]3)C(c3ccco3)C2)cc1 (centres undefined) | 80.4% | – | 14.6 µM [rising, single point]
23 | O=C(Nc1ccc(F)cc1F)NC1CCCCCCC1 | 2.31% | 3.26 µM [rising, single point] | –
24 | CCC(C)n1cnc2c(c1=O)c1nc3ccccc3nc1n2Cc1ccccc1OC (centres undefined) | 8.46% | 0.82 µM [rising, full curve] | –
25 | COc1ccc(-n2c(=O)c(CCC(=O)NCCc3ccccc3F)nc3ccccc32)cc1 | – | 5.8 µM [falling, partial curve] | –
26 | O=C(NCC1CCCO1)C1CCC(=O)N1Cc1ccc(F)cc1 (centres undefined) | 30.5% | – | 23.1 µM [rising, single point]
27 | CCOC(=O)C(C(=O)OCC)C1OC(=O)c2cc3c(cc21)C(=O)OC3C(C(=O)OCC)C(=O)OCC (centres undefined) | -10.1% | 0.206 µM [falling, full curve] | –
28 | Cc1cc(Cl)c(OCCCn2ccnc2)c(Br)c1 | – | 2.59 µM [rising, partial curve] | –
29 | COc1ccc(-c2cc(C(F)(F)F)nc(N3CCCCC3)n2)cc1OC | -4.46% | – | 0.92 µM [rising, full curve, poor fit]
30 | O=C(Nc1ccon1)c1sc2cc(Cl)ccc2c1Cl | 3.78% | 29.1 µM [falling, single point] | –
31 | COc1cc(C)c(Br)cc1S(=O)(=O)N1CCCC1 | 1.42% | 0.164 µM [falling, full curve, poor fit] | –
32 | CCN(CC)S(=O)(=O)c1ccc(N=Nc2c(C)[nH]n(C(N)=S)c2=O)cc1 | -51.9% | 13 µM [falling, partial curve] | 25.9 µM [falling, partial curve, poor fit]
33 | CC(=O)C1=C(C)NC(SCC(N)=O)=C(C#N)C1C (centres undefined) | -17.8% | 6.51 µM [rising, single point] | –
34 | COc1ccc(C=NCC2OCCc3ccccc32)cc1OC (centres undefined) | 75% | 0.82 µM [falling, single point] | 29.1 µM [rising, single point]
35 | CCOC(=O)N1CCN(Cc2nc3c(c(=O)n(C)c(=O)n3C)n2Cc2ccccc2)CC1 | – | 29.1 µM [rising, single point] | –
36 | Cn1cc(S(=O)(=O)N2CCc3ccccc32)cc1C(=O)Nc1ccc(Cl)cc1 | 29.4% | – | –
37 | COc1ccc(C(C(=O)NC2CCCC2)N(C(=O)c2ccco2)c2cc3c(cc2C(C)=O)OCO3)cc1OC (centres undefined) | -2.5% | 18.4 µM [falling, partial curve, poor fit] | –
38 | O=C(NCC1CCCO1)c1cccc(Oc2ccc([N+](=O)[O-])cc2)c1 (centres undefined) | 20.1% | 6.51 µM [rising, single point] | –
39 | COc1cccc(-c2c(C(=O)N/N=C/c3ccc(C)o3)nnn2-c2nonc2N)c1 | 23.3% | 0.146 µM [rising, full curve, poor fit] | –
40 | CSCC[C@H](NC(=O)OC(C)(C)C)C(=O)NCC1CCC(C(=O)N[C@@H](Cc2ccccc2)C(=O)O)CC1 (some centres undefined) | – | 6.51 µM [falling, single point] | –

Row | Compound | cell number change | AC50 [1] | AC50 [2]
41 | CCc1ccc(NC(=O)C2CCN(c3c(N4CCCC4)c(=O)c3=O)CC2)cc1 | 11.3% | – | –
42 | COc1cccc(-n2cc(C(=O)O)c3ccccc3c2=O)c1 | -13.4% | 25.9 µM [falling, partial curve, poor fit] | –
43 | Cc1ccc(S(=O)(=O)N2CCOCC2)cc1NC(=O)COC(=O)c1n[nH]c(=O)c2ccccc12 | 94.7% | 29.1 µM [rising, partial curve] | 18.4 µM [rising, single point]
44 | O=C(OCc1cc(Cl)ccc1OC(F)F)c1ccc([N+](=O)[O-])o1 | 10.1% | – | –
45 | O=C(CCCCCn1c(=S)[nH]c2ccccc2c1=O)N1CCOCC1 | -28.1% | 29.1 µM [falling, single point] | –
46 | Cc1cccc(OCC(=O)N/N=C2/SCC(=O)N2Cc2ccco2)c1 | 12.3% | – | –
47 | CCc1ccc(CNC(=O)CCn2nc(C)c3c(C)n(-c4ccccc4)nc3c2=O)cc1 | 10.5% | 1.46 µM [rising, full curve, poor fit] | 0.0651 µM [rising, full curve, poor fit]
48 | Cc1ccc(S(=O)(=O)/N=C(/Nc2c(C)n(C)n(-c3ccccc3)c2=O)c2ccccc2)cc1 | – | 29.1 µM [rising, single point] | 2.31 µM [rising, partial curve]
49 | O=C1NC(Cc2c[nH]c3ccccc23)C(=O)N1c1ccc(F)cc1 (centres undefined) | 48.7% | – | 16.4 µM [rising, single point]
50 | COc1cccc(NC(=S)N(CCc2c(C)[nH]c3ccccc23)Cc2ccco2)c1 | 17.8% | 1.03 µM [rising, partial curve] | –
51 | Cc1nc([N+](=O)[O-])cn1CC(=O)c1ccccc1 | 9.65% | – | –
52 | COc1cccc(Nc2ncccc2C(=O)NCc2ccccc2)c1 | – | 6.51 µM [rising, single point] | 6.51 µM [rising, single point]
53 | CS(=O)(=O)c1ccc(NC(=O)CN2C(=O)C3CCCCC3C2=O)cc1 (centres undefined) | -14.8% | 29.1 µM [falling, single point] | –
54 | O=c1cc(Cl)[nH]c(=O)n1Cc1ccc(F)cc1 | -21.5% | – | –
55 | CC(=O)c1ccc(OCc2cc(C(=O)N(C)Cc3ncc(C)[nH]3)no2)cc1 | 25.4% | – | –
56 | CC(C)CC(=O)NC(=S)NCc1ccccc1 | 18.1% | 5.17 µM [rising, partial curve, poor fit] | –
57 | Cc1cc(C)cc(Oc2nc(C(F)(F)F)nc3ccccc23)c1 | -36.4% | – | 29.1 µM [falling, single point]
58 | COCCNC(=O)Nc1ccc2c(c1)N(C)C(=O)c1ccccc1S2 | -15.1% | 2.06 µM [rising, partial curve] | –
59 | CCOC(=O)[C@@H]1[C@H]2COc3ccccc3[C@H]2N2C(=O)N(c3ccc(C(F)(F)F)cc3)C(=O)[C@]12C | – | 4.11 µM [falling, full curve] | –

Sorted by count of non-hydrogen atoms (largest number first): three of the compounds above.
Row | Compound | cell number change | AC50 [1] | AC50 [2]
48 | Cc1ccc(S(=O)(=O)/N=C(/Nc2c(C)n(C)n(-c3ccccc3)c2=O)c2ccccc2)cc1 | – | 29.1 µM [rising, single point] | 2.31 µM [rising, partial curve]
46 | Cc1cccc(OCC(=O)N/N=C2/SCC(=O)N2Cc2ccco2)c1 | 12.3% | – | –
49 | O=C1NC(Cc2c[nH]c3ccccc23)C(=O)N1c1ccc(F)cc1 (centres undefined) | 48.7% | – | 16.4 µM [rising, single point]
